The source of these data is patent US9594047B2, “Potentiometric sensors and method for measuring intermolecular interactions” (Universiteit Antwerpen, priority 2013, dated 2017).

This data set in a line: Potentiometric FIA sensorgram, linearization method, rubber phase (PVC) coated sensor. The class given is binding. The text has this: The model is based on the assumption that the rate determining phenomenon is the adsorption of analyte A (second molecular species) to the surface receptor sites Rsurface: A+Rsurface⇄ARsurface (5) Receptor sites are occupied by the analyte are designated as Roccupied. The rate of adsorption can be expressed as νon: […]
Differential equation 6 can be solved to yield equations 8 and 10. In these equations, Roccupied is replaced by R, the concentration-related response (10^mV/S−1), as both are linearly related (see above). […]
[formula] Starting from the “association” part of the sensorgram, one can now plot dR/dt versus R. For a pseudo-first-order kinetics, this will yield a straight line with slope equal to slope=−(koncanalyte+koff) (12) Plotting this slope versus canalyte then yields a graph from which kon and koff can be calculated.
From kon and koff, Kassoc=kon/koff is obtained, from which Kdiss (=1/Kassoc) and the Gibbs free energy of interaction can be calculated (ΔG^0=−RT ln Kass). […]
The membrane potential was measured against an Orion 800500 Ross reference electrode (Ag/AgCl) using a high impedance (10^13Ω) home-made amplifier. The detection signals were recorded on a data station composed of a PC equipped with a 6013 NI DA converter and LabVIEW 7 (National Instruments, Austin, Tex.) based software. […]

As for `CCN(CC)CC(=O)Nc1c(C)cccc1C` [Lidocaine, lidocaine], the “ΔG value of interaction with the sensor surface material” value stood at 7.29 kcal/mol. Take `CN(C)CCCN1c2ccccc2Sc2ccccc21` [Promazine]: the “ΔG value of interaction with the sensor surface material” value worked out at 8.78 kcal/mol.
